This note sets out measurements from paper PMC3885427.

B1: SHOX2a (called SHOX2 in the paper), full-length, yeast two-hybrid fusion [human] / SHOX2a (called SHOX2 in the paper), full-length, yeast two-hybrid fusion [human] (parent)
chain 1: MEELTAFVSKSFDQKVKEKKEAITYREVLESGPLRGAKEPTGCTEAGRDDRSSPAVRAAGGGGGGGGGGGGGGGGGGVGGGGAGGGAGGGRSPVRELDMGAAERSREPGSPRLTEVSPELKDRKEDAKGMEDEGQTKIKQRRSRTNFTLEQLNELERLFDETHYPDAFMREELSQRLGLSEARVQVWFQNRRAKCRKQENQLHKGVLIGAASQFEACRVAPYVNVGALRMPFQQDSHCNVTPLSFQVQAQLQLDSAVAHAHHHLHPHLAAHAPYMMFPAPPFGLPLATLAADSASAASVVAAAAAAKTTSKNSSIADLRLKAKKHAAALGL
chain 2: B1 chain 1

Variants of B1 are the subject of the assay. Briefly: yeast two-hybrid (β-galactosidase liquid assay). The settings on record: with SHOX2a (called SHOX2 in the paper), S. cerevisiae Y187, SHOX2 in pGBT9 (BD), mutant in pACT2 (AD), CRPG as substrate, parent: 100, read off a plot.
Consider chain 1 R319P, for which the percent of parent (% SHOX2 dimerization) stood at 34.
Turning to chain 1 R218Q, the percent of parent (% SHOX2 dimerization) was 110.
Regarding chain 1 L155V, the percent of parent (% SHOX2 dimerization) turned out to be 34.
Consider chain 1 R196C, for which the percent of parent (% SHOX2 dimerization) worked out at 92.
As for chain 1 A269D, the percent of parent (% SHOX2 dimerization) was found to be 100.
chain 1 A193P: the percent of parent (% SHOX2 dimerization) is 25.
Regarding chain 1 K139E, the percent of parent (% SHOX2 dimerization) stood at 110.
